The other results are listed elsewhere or left out.
What was measured:
Experiment in all cases: log2 fold change, soluble protein after heating vs DMSO (PISA); higher = thermal stabilisation; K562 cells, 10 uM, 30 min; active = over 0.2 and 3.5 SD of the protein, either way, in both replicates (recomputed)
saracatinib = compound: CN1CCN(CCOc2cc(OC3CCOCC3)c3c(Nc4c(Cl)ccc5c4OCO5)ncnc3c2)CC1 [saracatinib]
Outline: (§1)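 Quantification of soluble protein used TMTpro 16plex LC-MS/MS, with channel sums equalised. Samples were the supernatant after 21,000xg for 90 min of pooled aliquots from K562 cells (2×10^6 cells/mL) treated with 10 μM compound for 30 min, heated for 3 min over 48°C-58°C, and extracted in PBS with 0.5% NP-40 at 4°C. Values, from duplicates, describe thermal stability against control samples on a log2 fold-change scale.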

Sequences of proteins named here, by UniProt entry; tags and fusion partners are left off. A change or cut given only in a name is not applied to a line headed by its entry.
UniProt Q8IZ69: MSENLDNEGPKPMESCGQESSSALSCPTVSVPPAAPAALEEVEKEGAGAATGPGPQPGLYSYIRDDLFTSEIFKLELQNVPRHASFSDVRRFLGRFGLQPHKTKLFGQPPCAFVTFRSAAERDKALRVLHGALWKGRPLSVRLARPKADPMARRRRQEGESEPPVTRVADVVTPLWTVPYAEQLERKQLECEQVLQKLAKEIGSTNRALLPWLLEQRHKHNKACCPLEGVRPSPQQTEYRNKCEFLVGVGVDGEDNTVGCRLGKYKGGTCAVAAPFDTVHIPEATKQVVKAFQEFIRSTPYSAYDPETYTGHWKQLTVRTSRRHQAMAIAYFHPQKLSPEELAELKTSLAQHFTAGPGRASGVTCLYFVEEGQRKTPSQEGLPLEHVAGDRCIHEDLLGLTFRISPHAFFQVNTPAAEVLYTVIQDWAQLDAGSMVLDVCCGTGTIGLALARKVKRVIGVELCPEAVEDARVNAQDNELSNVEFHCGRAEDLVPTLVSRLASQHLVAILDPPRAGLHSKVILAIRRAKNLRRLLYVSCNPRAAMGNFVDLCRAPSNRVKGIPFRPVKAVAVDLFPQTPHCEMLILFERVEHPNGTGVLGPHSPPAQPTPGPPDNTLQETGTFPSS
UniProt Q15643: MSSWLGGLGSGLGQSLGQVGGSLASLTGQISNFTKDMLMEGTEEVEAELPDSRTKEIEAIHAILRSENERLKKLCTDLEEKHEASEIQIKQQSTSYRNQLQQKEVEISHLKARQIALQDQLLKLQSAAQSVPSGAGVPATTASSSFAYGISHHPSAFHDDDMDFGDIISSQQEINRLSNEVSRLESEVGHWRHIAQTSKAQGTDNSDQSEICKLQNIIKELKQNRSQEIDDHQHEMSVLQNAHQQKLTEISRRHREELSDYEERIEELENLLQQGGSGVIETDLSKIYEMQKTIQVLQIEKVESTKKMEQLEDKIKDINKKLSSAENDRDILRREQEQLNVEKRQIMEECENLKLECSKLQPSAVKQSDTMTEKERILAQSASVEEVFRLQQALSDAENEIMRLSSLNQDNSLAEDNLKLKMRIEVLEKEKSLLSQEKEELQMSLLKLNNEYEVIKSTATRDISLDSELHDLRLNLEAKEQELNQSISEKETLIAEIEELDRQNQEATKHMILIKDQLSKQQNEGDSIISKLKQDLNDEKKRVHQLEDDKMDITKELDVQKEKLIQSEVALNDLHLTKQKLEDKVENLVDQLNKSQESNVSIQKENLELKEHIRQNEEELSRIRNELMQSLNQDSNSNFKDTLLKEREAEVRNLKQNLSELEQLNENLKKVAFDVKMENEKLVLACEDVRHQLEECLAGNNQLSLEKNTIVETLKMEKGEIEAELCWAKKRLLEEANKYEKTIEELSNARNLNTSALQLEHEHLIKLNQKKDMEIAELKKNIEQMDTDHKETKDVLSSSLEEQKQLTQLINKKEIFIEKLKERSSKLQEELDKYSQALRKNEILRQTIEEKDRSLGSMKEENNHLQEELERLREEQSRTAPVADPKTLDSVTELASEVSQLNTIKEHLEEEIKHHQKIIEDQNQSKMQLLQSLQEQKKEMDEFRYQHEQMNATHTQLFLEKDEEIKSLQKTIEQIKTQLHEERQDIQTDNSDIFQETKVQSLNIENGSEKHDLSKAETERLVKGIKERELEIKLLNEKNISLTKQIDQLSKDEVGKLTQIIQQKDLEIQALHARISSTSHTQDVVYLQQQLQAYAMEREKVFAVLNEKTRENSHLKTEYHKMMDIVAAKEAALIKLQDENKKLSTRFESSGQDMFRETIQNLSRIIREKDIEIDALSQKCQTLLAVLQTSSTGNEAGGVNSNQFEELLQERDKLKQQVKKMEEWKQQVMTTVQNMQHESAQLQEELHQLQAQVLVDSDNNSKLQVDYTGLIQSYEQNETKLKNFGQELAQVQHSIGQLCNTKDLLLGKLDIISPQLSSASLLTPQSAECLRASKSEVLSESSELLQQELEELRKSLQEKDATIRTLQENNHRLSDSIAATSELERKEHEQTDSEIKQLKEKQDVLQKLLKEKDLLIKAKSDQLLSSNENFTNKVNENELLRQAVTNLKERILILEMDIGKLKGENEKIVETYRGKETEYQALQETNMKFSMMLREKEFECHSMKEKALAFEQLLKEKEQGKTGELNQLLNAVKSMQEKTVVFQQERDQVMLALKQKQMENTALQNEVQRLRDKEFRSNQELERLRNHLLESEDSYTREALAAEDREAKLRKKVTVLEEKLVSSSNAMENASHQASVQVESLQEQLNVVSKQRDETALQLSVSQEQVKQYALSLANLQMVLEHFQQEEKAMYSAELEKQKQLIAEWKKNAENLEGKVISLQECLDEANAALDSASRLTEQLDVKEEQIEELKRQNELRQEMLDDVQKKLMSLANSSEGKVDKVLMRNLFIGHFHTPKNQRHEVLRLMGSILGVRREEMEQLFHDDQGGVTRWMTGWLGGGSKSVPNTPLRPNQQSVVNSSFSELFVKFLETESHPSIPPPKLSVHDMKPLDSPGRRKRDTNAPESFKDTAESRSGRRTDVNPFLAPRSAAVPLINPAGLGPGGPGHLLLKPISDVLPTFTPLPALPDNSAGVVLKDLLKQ
UniProt Q8TBZ6: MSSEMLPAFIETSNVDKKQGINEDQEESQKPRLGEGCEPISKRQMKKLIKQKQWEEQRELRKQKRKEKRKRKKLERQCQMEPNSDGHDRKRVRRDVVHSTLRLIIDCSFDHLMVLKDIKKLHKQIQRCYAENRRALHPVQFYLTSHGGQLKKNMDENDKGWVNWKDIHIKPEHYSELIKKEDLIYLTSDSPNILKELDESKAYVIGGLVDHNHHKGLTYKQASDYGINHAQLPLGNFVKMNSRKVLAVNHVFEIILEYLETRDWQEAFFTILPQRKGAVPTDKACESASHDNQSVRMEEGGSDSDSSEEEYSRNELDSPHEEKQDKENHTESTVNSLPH
UniProt Q5T2D2: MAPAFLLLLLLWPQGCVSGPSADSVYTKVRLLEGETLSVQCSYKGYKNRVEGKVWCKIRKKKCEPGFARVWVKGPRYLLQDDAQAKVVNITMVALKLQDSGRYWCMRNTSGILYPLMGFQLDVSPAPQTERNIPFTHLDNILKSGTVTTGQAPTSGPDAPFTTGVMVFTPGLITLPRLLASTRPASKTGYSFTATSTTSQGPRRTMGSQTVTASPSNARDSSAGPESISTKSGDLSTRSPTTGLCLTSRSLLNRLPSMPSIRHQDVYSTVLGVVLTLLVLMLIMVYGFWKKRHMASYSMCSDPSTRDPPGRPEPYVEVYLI
UniProt Q96GJ1: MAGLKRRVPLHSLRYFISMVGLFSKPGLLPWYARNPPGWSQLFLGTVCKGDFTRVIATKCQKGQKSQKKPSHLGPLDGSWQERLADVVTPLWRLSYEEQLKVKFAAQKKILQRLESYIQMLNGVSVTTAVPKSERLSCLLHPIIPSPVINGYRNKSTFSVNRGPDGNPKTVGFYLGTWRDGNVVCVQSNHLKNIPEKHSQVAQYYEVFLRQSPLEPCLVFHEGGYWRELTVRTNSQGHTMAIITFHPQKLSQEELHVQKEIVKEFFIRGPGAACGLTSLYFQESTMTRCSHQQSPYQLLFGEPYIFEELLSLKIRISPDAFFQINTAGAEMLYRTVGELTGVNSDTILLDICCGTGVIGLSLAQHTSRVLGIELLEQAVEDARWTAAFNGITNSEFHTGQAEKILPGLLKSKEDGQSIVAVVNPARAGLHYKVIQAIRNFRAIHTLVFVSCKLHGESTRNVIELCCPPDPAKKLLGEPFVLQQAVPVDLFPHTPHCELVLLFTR
UniProt Q15629: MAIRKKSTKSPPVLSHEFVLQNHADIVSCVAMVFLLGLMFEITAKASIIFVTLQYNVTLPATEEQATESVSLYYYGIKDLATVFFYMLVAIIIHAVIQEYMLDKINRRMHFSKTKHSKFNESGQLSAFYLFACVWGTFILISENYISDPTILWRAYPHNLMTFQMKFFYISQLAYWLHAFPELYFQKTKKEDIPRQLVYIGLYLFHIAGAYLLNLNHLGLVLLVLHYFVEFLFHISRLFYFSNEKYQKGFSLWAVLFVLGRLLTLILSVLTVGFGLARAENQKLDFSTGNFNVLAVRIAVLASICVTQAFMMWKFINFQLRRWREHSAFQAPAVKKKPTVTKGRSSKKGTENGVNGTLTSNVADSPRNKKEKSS
UniProt Q96DX7: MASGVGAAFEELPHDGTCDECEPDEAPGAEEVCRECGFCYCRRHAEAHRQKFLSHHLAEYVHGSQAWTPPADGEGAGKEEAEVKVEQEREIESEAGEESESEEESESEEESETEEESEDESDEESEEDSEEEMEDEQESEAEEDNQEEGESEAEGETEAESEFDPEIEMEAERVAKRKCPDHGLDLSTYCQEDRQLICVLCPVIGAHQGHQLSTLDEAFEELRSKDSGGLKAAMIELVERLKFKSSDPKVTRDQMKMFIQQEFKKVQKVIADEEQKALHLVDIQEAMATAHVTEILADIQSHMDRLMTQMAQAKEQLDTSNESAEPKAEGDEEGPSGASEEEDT
UniProt Q9P0U1: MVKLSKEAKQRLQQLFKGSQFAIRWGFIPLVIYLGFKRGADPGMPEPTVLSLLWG
UniProt Q92574: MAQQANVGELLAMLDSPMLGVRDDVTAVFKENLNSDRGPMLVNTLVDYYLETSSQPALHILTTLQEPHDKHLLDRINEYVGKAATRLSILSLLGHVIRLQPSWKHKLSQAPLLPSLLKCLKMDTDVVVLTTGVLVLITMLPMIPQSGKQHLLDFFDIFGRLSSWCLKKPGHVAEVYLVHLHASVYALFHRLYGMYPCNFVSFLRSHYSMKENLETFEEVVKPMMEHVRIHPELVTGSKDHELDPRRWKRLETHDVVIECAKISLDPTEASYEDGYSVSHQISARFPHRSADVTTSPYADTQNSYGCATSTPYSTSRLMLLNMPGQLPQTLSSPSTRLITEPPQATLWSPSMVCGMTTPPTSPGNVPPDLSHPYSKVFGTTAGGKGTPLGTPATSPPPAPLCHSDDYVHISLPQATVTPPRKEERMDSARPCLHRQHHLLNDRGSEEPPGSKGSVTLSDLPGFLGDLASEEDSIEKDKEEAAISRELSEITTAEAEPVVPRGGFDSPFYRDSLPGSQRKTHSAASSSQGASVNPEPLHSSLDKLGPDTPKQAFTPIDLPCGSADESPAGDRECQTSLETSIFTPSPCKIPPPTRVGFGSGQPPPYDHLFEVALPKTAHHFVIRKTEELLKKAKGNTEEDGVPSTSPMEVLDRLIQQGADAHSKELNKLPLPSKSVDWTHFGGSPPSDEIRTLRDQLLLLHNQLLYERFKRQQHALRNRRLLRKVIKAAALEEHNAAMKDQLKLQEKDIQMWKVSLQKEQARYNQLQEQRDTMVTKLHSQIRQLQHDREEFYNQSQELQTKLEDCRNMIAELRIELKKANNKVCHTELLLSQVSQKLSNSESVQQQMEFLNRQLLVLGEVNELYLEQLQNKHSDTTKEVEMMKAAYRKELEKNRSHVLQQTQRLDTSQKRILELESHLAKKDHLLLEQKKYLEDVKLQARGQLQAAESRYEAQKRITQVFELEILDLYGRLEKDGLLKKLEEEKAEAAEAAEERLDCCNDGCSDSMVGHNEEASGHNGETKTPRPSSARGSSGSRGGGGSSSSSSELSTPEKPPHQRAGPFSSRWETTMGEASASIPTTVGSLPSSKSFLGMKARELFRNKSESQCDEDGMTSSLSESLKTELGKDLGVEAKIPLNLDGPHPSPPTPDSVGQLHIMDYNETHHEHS
UniProt O75674: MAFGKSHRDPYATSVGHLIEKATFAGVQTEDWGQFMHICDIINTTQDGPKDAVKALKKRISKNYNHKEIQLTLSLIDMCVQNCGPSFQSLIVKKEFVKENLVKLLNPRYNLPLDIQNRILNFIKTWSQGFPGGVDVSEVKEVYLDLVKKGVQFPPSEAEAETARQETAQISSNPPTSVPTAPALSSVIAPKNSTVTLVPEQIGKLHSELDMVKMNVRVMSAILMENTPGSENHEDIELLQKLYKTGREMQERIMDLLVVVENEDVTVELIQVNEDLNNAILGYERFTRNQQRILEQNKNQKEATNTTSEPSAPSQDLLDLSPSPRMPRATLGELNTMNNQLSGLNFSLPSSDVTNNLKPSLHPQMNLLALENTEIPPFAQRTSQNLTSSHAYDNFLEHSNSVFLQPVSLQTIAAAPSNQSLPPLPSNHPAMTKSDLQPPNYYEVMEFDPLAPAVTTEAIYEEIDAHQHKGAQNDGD

sotrastaurin = compound: CN1CCN(c2nc(C3=C(c4c[nH]c5ccccc45)C(=O)NC3=O)c3ccccc3n2)CC1 [sotrastaurin]
Outline: as §1

Tubastatin A = compound: CN1CCc2c(c3ccccc3n2Cc2ccc(C(=O)NO)cc2)C1 [Tubastatin A]
Outline: as §1

[1] = compound: CNC(=O)C1=CC=CC=C1NC2=NC(=NC=C2Cl)NC3=C(C=C(C=C3)N4CCOCC4)OC
Outline: as §1

defactinib = compound: CNC(=O)c1ccc(Nc2ncc(C(F)(F)F)c(NCc3nccnc3N(C)S(C)(=O)=O)n2)cc1 [defactinib]
Outline: as §1

rucaparib = compound: CNCc1ccc(-c2[nH]c3cc(F)cc4c3c2CCNC4=O)cc1 [rucaparib]
Outline: as §1

[2] = compound: CNc1nc(-c2ccc3c(N)n[nH]c3c2)cc(N2C[C@@H](C(=O)NC3CCCCC3)CC[C@H]2C)n1
Outline: as §1

encorafenib = compound: COC(=O)N[C@@H](C)CNc1nccc(-c2cn(C(C)C)nc2-c2cc(Cl)cc(NS(C)(=O)=O)c2F)n1 [encorafenib]
Outline: as §1

[3] = compound: COC(=O)[C@H](CCSC)NC(=O)C1=C(C=C(C=C1)NC[C@H](CS)N)C2=CC=CC=C2
Outline: as §1

[4] = compound: COC1=CC=C(C=C1)CN2C=CC3=C2C=C(C=C3)C(=O)NO
Outline: as §1

filanesib = compound: CON(C)C(=O)N1N=C(c2cc(F)ccc2F)S[C@@]1(CCCN)c1ccccc1 [filanesib]
Outline: as §1

zotarolimus = compound: CO[C@H]1C[C@@H]2CC[C@@H](C)[C@@](O)(O2)C(=O)C(=O)N2CCCC[C@H]2C(=O)O[C@H]([C@H](C)C[C@@H]2CC[C@H](n3cnnn3)[C@H](OC)C2)CC(=O)[C@H](C)/C=C(\C)[C@@H](O)[C@@H](OC)C(=O)[C@H](C)C[C@H](C)/C=C/C=C/C=C/1C [zotarolimus]
Outline: as §1

alisertib = compound: COc1cc(Nc2ncc3c(n2)-c2ccc(Cl)cc2C(c2c(F)cccc2OC)=NC3)ccc1C(=O)O [alisertib]
Outline: as §1

gefitinib = compound: COc1cc2ncnc(Nc3ccc(F)c(Cl)c3)c2cc1OCCCN1CCOCC1 [gefitinib]
Outline: as §1

[5] = compound: COc1cccc2cc(-c3nc([C@H]4CC[C@H](C(=O)O)CC4)n4ncnc(N)c34)[nH]c12
Outline: as §1

pictilisib = compound: CS(=O)(=O)N1CCN(Cc2cc3nc(-c4cccc5[nH]ncc45)nc(N4CCOCC4)c3s2)CC1 [pictilisib]
Outline: as §1

idasanutlin = compound: COc1cc(C(=O)O)ccc1NC(=O)[C@@H]1N[C@@H](CC(C)(C)C)[C@](C#N)(c2ccc(Cl)cc2F)[C@H]1c1cccc(Cl)c1F [idasanutlin]
Outline: as §1

[6] = compound: COc1cc2nc(-c3cc(F)ccc3O)nc(N[C@@H]3CNC[C@H]3C(C)(C)O)c2cc1OC
Outline: as §1

lapatinib = compound: CS(=O)(=O)CCNCc1ccc(-c2ccc3ncnc(Nc4ccc(OCc5cccc(F)c5)c(Cl)c4)c3c2)o1 [lapatinib]
Outline: as §1

alvocidib = compound: CN1CC[C@H](c2c(O)cc(O)c3c(=O)cc(-c4ccccc4Cl)oc23)[C@H](O)C1 [alvocidib]
Outline: as §1

| Target | log2 fold change (saracatinib) | log2 fold change (sotrastaurin) | log2 fold change (Tubastatin A) | log2 fold change [1] | log2 fold change (defactinib) | log2 fold change (rucaparib) | log2 fold change [2] | log2 fold change (encorafenib) | log2 fold change [3] | log2 fold change [4] | log2 fold change (filanesib) | log2 fold change (zotarolimus) | log2 fold change (alisertib) | log2 fold change (gefitinib) | log2 fold change [5] | log2 fold change (pictilisib) | log2 fold change (idasanutlin) | log2 fold change [6] | log2 fold change (lapatinib) | log2 fold change (alvocidib) |
| --- | --- | --- | --- | --- | --- | --- | --- | --- | --- | --- | --- | --- | --- | --- | --- | --- | --- | --- | --- | --- |
| TRIM23 (UniProt P36406) | inactive: 0.033 | inactive: 0.075 | inactive: 0.032 | inactive: -0.049 | inactive: -0.004 | inactive: 0.057 | inactive: 0.035 | inactive: 0.012 | inactive: -0.039 | inactive: 0.019 | inactive: -0.031 | inactive: 0.036 | inactive: -0.078 | inactive: 0.012 | inactive: 0.039 | inactive: 0.204 |  |  |  |  |
| TRMT2A (UniProt Q8IZ69) | inactive: -0.011 | inactive: -0.076 | inactive: -0.005 | inactive: -0.049 | inactive: -0.031 | inactive: 0.084 | inactive: 0.094 | inactive: 0.056 | inactive: -0.094 | active: -0.322 | inactive: 0.061 | inactive: 0.016 | inactive: -0.051 | inactive: -0.006 | inactive: -0.071 | inactive: -0.096 | inactive: 0.04 | inactive: -0.158 | inactive: 0.016 |  |
| TRIP11 (UniProt Q15643) | inactive: -0.064 | inactive: -0.121 | inactive: -0.005 | inactive: 0.005 | inactive: 0.019 | inactive: -0.087 | inactive: 0.131 | inactive: -0.027 | inactive: -0.153 | inactive: -0.016 | inactive: -0.034 |  | inactive: -0.031 | inactive: -0.03 | inactive: -0.001 | inactive: 0.106 | inactive: 0.126 | inactive: -0.035 | inactive: -0.01 |  |
| TRMT10A (UniProt Q8TBZ6) | inactive: -0.028 | inactive: -0.024 | inactive: -0.038 | inactive: 0.054 | inactive: -0.06 | inactive: 0.016 | inactive: 0.032 | inactive: 0.026 | inactive: 0.036 | inactive: -0.195 | inactive: -0.134 | inactive: 0.054 | inactive: 0.048 | inactive: -0.025 | inactive: 0.028 | inactive: 0.093 | inactive: -0.081 | inactive: -0.006 | inactive: 0.03 |  |
| TREML2 (UniProt Q5T2D2) | inactive: 0.127 | inactive: 0.034 |  | inactive: -0.176 |  |  | inactive: 0.002 |  |  | inactive: -0.022 | inactive: 0.012 |  | inactive: 0.057 |  | inactive: 0.005 |  |  |  |  |  |
| TRMT2B (UniProt Q96GJ1) | inactive: -0.029 |  | inactive: 0.115 | inactive: 0.064 | inactive: -0.013 | inactive: -0.054 | inactive: -0.018 | inactive: -0.023 | inactive: -0.04 |  |  | inactive: -0.243 | inactive: 0.215 | inactive: 0.171 | inactive: -0.005 | inactive: 0.033 | inactive: -0.039 | inactive: -0.118 | inactive: -0.03 | inactive: 0.019 |
| TRAM1 (UniProt Q15629) | inactive: -0.007 | inactive: -0.025 | inactive: -0.052 | inactive: -0.208 | inactive: -0.029 | inactive: -0.132 | inactive: 0 | inactive: 0.179 | inactive: -0.052 | inactive: -0.188 | inactive: -0.218 | inactive: -0.103 | inactive: -0.067 | inactive: -0.066 | inactive: 0.005 | inactive: -0.163 | inactive: -0.119 | inactive: 0.24 | inactive: -0.092 |  |
| TRIM44 (UniProt Q96DX7) | inactive: 0.035 | inactive: -0.076 | inactive: 0.116 | inactive: -0.01 | inactive: -0.053 | inactive: -0.092 | inactive: -0.026 | inactive: 0.032 | inactive: 0.025 | inactive: -0.074 | inactive: 0.022 | inactive: 0.005 | inactive: 0.008 | inactive: -0.027 | inactive: -0.033 | inactive: 0.039 | inactive: -0.025 | inactive: -0.047 | inactive: 0.025 |  |
| TRAPPC2 isoform 3 (UniProt P0DI81) | inactive: -0.049 |  | inactive: 0.085 | inactive: -0.027 | inactive: -0.081 |  | inactive: -0.081 |  | inactive: -0.08 |  |  | inactive: 0.066 | inactive: 0.066 | inactive: 0.064 | inactive: -0.144 | inactive: -0.031 | inactive: 0.008 | inactive: -0.015 | inactive: -0.052 | inactive: 0.124 |
| TOMM7 (UniProt Q9P0U1) | inactive: -0.008 | inactive: 0.048 | inactive: -0.005 | inactive: -0.023 | inactive: -0.047 | inactive: -0.02 | inactive: -0.002 | inactive: -0.035 | inactive: -0.046 | inactive: -0.014 | inactive: -0.069 |  | inactive: -0.197 | inactive: 0.049 | inactive: 0.087 | inactive: 0.076 |  | inactive: -0.099 | inactive: 0.027 |  |
| TSC1 (UniProt Q92574) | inactive: -0.066 |  | inactive: 0.193 | inactive: 0.147 | inactive: -0.267 | inactive: 0.17 | inactive: 0.036 | inactive: 0.017 | inactive: 0.054 | inactive: 0.187 |  | inactive: 0.184 |  |  |  |  | inactive: 0.09 | inactive: -0.123 | inactive: 0.043 | inactive: -0.128 |
| TOM1L1 (UniProt O75674) | inactive: -0.003 | inactive: 0.019 | inactive: -0.066 | inactive: -0.043 | inactive: -0.042 | inactive: -0.02 | inactive: -0.026 | inactive: -0.042 | inactive: -0.041 | inactive: -0.006 | inactive: 0.06 | inactive: 0.008 | inactive: -0.073 | inactive: 0.056 | inactive: -0.051 | inactive: -0.076 | inactive: -0.142 | inactive: 0.061 | inactive: -0.007 |  |

In another format: entries from further up
Target | log2 fold change (saracatinib) | log2 fold change (sotrastaurin) | log2 fold change (Tubastatin A) | log2 fold change [1] | log2 fold change (defactinib) | log2 fold change (rucaparib) | log2 fold change [2] | log2 fold change (encorafenib) | log2 fold change [3] | log2 fold change [4] | log2 fold change (filanesib) | log2 fold change (zotarolimus) | log2 fold change (alisertib) | log2 fold change (gefitinib) | log2 fold change [5] | log2 fold change (pictilisib) | log2 fold change (idasanutlin) | log2 fold change [6] | log2 fold change (lapatinib) | log2 fold change (alvocidib)
TRIM44 (UniProt Q96DX7) | inactive: 0.035 | inactive: -0.076 | inactive: 0.116 | inactive: -0.01 | inactive: -0.053 | inactive: -0.092 | inactive: -0.026 | inactive: 0.032 | inactive: 0.025 | inactive: -0.074 | inactive: 0.022 | inactive: 0.005 | inactive: 0.008 | inactive: -0.027 | inactive: -0.033 | inactive: 0.039 | inactive: -0.025 | inactive: -0.047 | inactive: 0.025 | 
TRAPPC2 isoform 3 (UniProt P0DI81) | inactive: -0.049 |  | inactive: 0.085 | inactive: -0.027 | inactive: -0.081 |  | inactive: -0.081 |  | inactive: -0.08 |  |  | inactive: 0.066 | inactive: 0.066 | inactive: 0.064 | inactive: -0.144 | inactive: -0.031 | inactive: 0.008 | inactive: -0.015 | inactive: -0.052 | inactive: 0.124

Reference: the supplement of paper PMC10849652
